In paper PMC7819943, “Rice protein-binding microarrays: a tool to detect cis-acting elements near promoter regions in rice” one finds binding signal data, which are given here for 42 sequences.

Chains of the proteins cited; added tags and fusions are not shown.
UniProt Q0JBA9, entry or part of it: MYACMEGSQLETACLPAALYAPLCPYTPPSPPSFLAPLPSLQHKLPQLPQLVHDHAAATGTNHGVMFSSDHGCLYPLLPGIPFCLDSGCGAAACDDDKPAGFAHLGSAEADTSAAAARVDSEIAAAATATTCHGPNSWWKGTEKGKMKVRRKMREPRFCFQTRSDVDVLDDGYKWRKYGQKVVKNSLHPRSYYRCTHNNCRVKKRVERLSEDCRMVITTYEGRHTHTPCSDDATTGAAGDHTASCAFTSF

The list shows a part of the results.

For the test, the target named is OsWRKY34 (Oryza sativa, UniProt Q0JBA9 1-250). In words: protein-binding microarray (RPBM); PBS, 2% BSA, 51.3 ng/ul salmon testes DNA, 50 uM zinc acetate, 200 nM TF, 25 C, 1 h; high values mean tight binding. Conditions: protein: recombinant; tags: N-terminal polyhistidine and DsRed monomer fusion (pET32a); label: CyDye5-dUTP incorporated in the synthesized complementary strand; 3' TTTTT single-stranded linker to array surface; dsDNA, one strand shown. The essentials:
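An Axon 4000B scanner gave the binding signal as per-feature fluorescence intensity in arbitrary units. This followed washing of a custom Agilent array that had been incubated for 1 h at 25 °C with 200 nM protein in PBS, 2% BSA, salmon testes DNA and 50 µM zinc acetate. The proteins were transcription factors fused at the N-terminus to polyhistidine and DsRed, expressed in E. coli BL21-CodonPlus and purified on Ni–NTA.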
Consider “AATATCACACTGCCCGCGCCCCTGTTCGCAGCGCATGTGACGGAGTCACCTAGTGCAG”, for which the binding signal was 8380 fluorescence intensity (a.u.).
As to “ACTACAATCCTCTTCCGTCGAAGAATTTCATAAGTCATAACGGAGTCACCTAGTGCAG”, the binding signal was 8790 fluorescence intensity (a.u.).
The result for “GACCTAGTCAAATTAGCCACGTAGATGTCATGTCGGTCAACGGAGTCACCTAGTGCAG” reads 8290 fluorescence intensity (a.u.); that for “AGCTATCCAACCTAACCCATCGCACGTCCTTTTTCCTCGCCGGAGTCACCTAGTGCAG”, 9030 fluorescence intensity (a.u.).
The result for “TCGGTTGAACCCCGTCGATCTCTATCCCTCTCTTACTCTCCGGAGTCACCTAGTGCAG” reads 8060 fluorescence intensity (a.u.).
The value for “TCTGCTTTGGAGCTTGTCGCGGCCTGTTCTTTTTCTTTACCGGAGTCACCTAGTGCAG” was 11000 fluorescence intensity (a.u.); that for “GCTCATCCGCTTGCCTCGTCGCTGCTGCTGCTGCTGATCCCGGAGTCACCTAGTGCAG” was 10100 fluorescence intensity (a.u.).
For “CTTTTTTATATGCATCCTTATAAACATGTATTTTTTTTATCGGAGTCACCTAGTGCAG”, the binding signal was 9540 fluorescence intensity (a.u.).
Turning to “AAACCATTTTTTCCACCATATTAATTAATTCACACTGTCACGGAGTCACCTAGTGCAG”, the binding signal was 9610 fluorescence intensity (a.u.).
The result for “GTCAGAGGGTGGTTACAAGTCCACACACATGTTGCTTTCCCGGAGTCACCTAGTGCAG” reads 9050 fluorescence intensity (a.u.).
The value for “CCATGTATAATATGTGATGTTTTTCTCCGTGATCTAATCTCGGAGTCACCTAGTGCAG” was 8620 fluorescence intensity (a.u.); that for “TTACTGGGAGTCTGATATACATTTCTTTCTTGTCTTCCTGCGGAGTCACCTAGTGCAG” was 11400 fluorescence intensity (a.u.).
The value for “TTTTTGCATTCGGGCCCCTTGCCGCCGGGTTTTCCTAAAACGGAGTCACCTAGTGCAG” was 8220 fluorescence intensity (a.u.); that for “ATGGTGGTGGAGGATGATGTCGGCGAGGTGGTCAACGACGCGGAGTCACCTAGTGCAG” was 11000 fluorescence intensity (a.u.); that for “GCATCGCCCTATGGTTTATTTTGGCTAGCACTAAGTATATCGGAGTCACCTAGTGCAG” was 9640 fluorescence intensity (a.u.).
In the case of “TCCAACTCCGGCAGGGAGCATACGGGTTAGGGTTTGGGGTCGGAGTCACCTAGTGCAG”, the binding signal is 8380 fluorescence intensity (a.u.).
The value for “CCCACACACCCCAGGCCCCACCAACCCACCGGCTGCCGCCCGGAGTCACCTAGTGCAG” was 9580 fluorescence intensity (a.u.).
For “ACACACCTTGCCATCTAATTATTACTTCTTCAATCTTAAACGGAGTCACCTAGTGCAG”, the binding signal was 10500 fluorescence intensity (a.u.).
The value for “GGGGAGGTGGAGATGAGATGAGGCGGCGGGGTGGCGGTGGCGGAGTCACCTAGTGCAG” was 13700 fluorescence intensity (a.u.); that for “TCCCATGCCACCAATATTGGCCCACTGTCACCTCCTAACCCGGAGTCACCTAGTGCAG” was 8610 fluorescence intensity (a.u.).
The value for “GTCCTCACCCACATGCCGCTGTCACCACCGCTCTGGTCCTCGGAGTCACCTAGTGCAG” was 8030 fluorescence intensity (a.u.); that for “ATATTATATATTACCTCTGCCTGCATGGTCCATGTACCATCGGAGTCACCTAGTGCAG” was 8720 fluorescence intensity (a.u.).
As to “TAGTGGTTATGGGTTTGTGTTTCTATGGTTTTGTGAAATACGGAGTCACCTAGTGCAG”, the binding signal is 9100 fluorescence intensity (a.u.).
“GCTATCCGTCCACCCGTCCATTCATCCTCGCCTTTGCCAGCGGAGTCACCTAGTGCAG”: the binding signal is 9210 fluorescence intensity (a.u.).
Turning to “CAGAAACACAATCGTCGCTCGAATCTGCTTCTCATTCTTTCGGAGTCACCTAGTGCAG”, the binding signal was 8110 fluorescence intensity (a.u.).
The result for “TATTACCACGCTTAACCGCGCCAATTACTTCGCCGGGTTACGGAGTCACCTAGTGCAG” reads 9830 fluorescence intensity (a.u.).
For “TCCTCAATTTCACCTCGTGTTCCAATTCCACTCCGCTCACCGGAGTCACCTAGTGCAG”, the binding signal is 8330 fluorescence intensity (a.u.).
On to “GCTAGCGGTGCACTTCGTTTTTCTGCTGCACACGCGTCCACGGAGTCACCTAGTGCAG”, for which the binding signal was 10500 fluorescence intensity (a.u.).
“ATCTTCTCGCCTCTGCTTCTTGCTGCTGCCTAGCTTAGCTCGGAGTCACCTAGTGCAG”: the binding signal was 9550 fluorescence intensity (a.u.).
For the sequence “GGGAACTTCAATCTAGTTTATCCCTTTGCTCAATTTCAGTCGGAGTCACCTAGTGCAG”, the binding signal is 9180 fluorescence intensity (a.u.).
The result for “CAGCCCACGAAGTCACCAACTGACAGCCCAGCCCATTAACCGGAGTCACCTAGTGCAG” reads 8450 fluorescence intensity (a.u.); that for “GGGATTAGCAGAACAAGACCTAAAGGGGTAGGGTTCCACTCGGAGTCACCTAGTGCAG”, 9130 fluorescence intensity (a.u.); that for “GAAGTTGAACACTCCGTTAATTTTTAGTTGATTTCTTCCACGGAGTCACCTAGTGCAG”, 8270 fluorescence intensity (a.u.).
The value for “ATGTGCTCGACATATGTTTTTTTATTTGTTTTGCTGATGACGGAGTCACCTAGTGCAG” was 8740 fluorescence intensity (a.u.).
Regarding “TGTTCATCTCTAGTTTTACTGACCACACTAACTCTGTCACCGGAGTCACCTAGTGCAG”, the binding signal is 8520 fluorescence intensity (a.u.).
Regarding “AACCATTAAAAAATCAGTCAAATGTTTTTTATACCTTTTCCGGAGTCACCTAGTGCAG”, the binding signal is 8330 fluorescence intensity (a.u.).
“TACTGTTATTTGCATATTGGAACACTAGTCTTTCACACGTCGGAGTCACCTAGTGCAG”: the binding signal is 9270 fluorescence intensity (a.u.).
As to “ATCCCCATTTTTTTCCCAAGTGGTACACTGAAATTTTTTTCGGAGTCACCTAGTGCAG”, the binding signal is 8100 fluorescence intensity (a.u.).
Regarding “TCTGTTGTATTCTTGGTGGGCGAGTGTCGGAGTTTTTTTCCGGAGTCACCTAGTGCAG”, the binding signal is 8200 fluorescence intensity (a.u.).
The value for “TTGTTGTCCCGTGTCTCCGCCGTCGCGTCACCGCCCAGCACGGAGTCACCTAGTGCAG” was 10200 fluorescence intensity (a.u.); that for “CCCGATCGCTTCTTCTTCTTCTTCTTCGTTGCATTCATCTCGGAGTCACCTAGTGCAG” was 10000 fluorescence intensity (a.u.).
For the sequence “ATGTCCGACTGCGCCATCATTGTCTCCGCTAACGCCATTGCGGAGTCACCTAGTGCAG”, the binding signal is 8540 fluorescence intensity (a.u.).
